No constants are given. Whether binding was seen depends on the method and setting. Some results given as binding are weak or reduced against the parent protein; the word gives no strength.
Target: T1, human galanin receptor type 1 (human) (UniProt P47211)
T1 sequence (looked up): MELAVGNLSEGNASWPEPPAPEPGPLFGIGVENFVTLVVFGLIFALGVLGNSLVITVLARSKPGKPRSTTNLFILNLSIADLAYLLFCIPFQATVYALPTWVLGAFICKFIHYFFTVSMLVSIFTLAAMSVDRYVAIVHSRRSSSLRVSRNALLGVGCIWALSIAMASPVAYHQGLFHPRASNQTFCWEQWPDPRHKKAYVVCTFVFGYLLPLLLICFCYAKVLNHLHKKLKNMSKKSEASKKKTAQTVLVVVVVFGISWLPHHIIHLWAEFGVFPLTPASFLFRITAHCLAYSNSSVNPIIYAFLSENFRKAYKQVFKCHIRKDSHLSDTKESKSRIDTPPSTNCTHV
Test: GalR1 receptor binding assay (radioligand competition)

For ASAGLWSPAKEKRGWTLNSAGYLLGPHAVGNHRSFSDKNGLTS, which binding is on record?
The binding was “binds”.

Reference: patent US20120021039A1
